Results taken from PMC7214460.
Results are given in words; binding and its absence hold for the method and conditions named. Binding seen in cells or lysates may run through a third protein. Some binding calls cover weakened binding; strength is not graded here. One block for each molecule: values may come before it.

Chains of the proteins cited; added tags and fusions are not shown. Residues count along the entry.
UniProt P11021, residues 19-654: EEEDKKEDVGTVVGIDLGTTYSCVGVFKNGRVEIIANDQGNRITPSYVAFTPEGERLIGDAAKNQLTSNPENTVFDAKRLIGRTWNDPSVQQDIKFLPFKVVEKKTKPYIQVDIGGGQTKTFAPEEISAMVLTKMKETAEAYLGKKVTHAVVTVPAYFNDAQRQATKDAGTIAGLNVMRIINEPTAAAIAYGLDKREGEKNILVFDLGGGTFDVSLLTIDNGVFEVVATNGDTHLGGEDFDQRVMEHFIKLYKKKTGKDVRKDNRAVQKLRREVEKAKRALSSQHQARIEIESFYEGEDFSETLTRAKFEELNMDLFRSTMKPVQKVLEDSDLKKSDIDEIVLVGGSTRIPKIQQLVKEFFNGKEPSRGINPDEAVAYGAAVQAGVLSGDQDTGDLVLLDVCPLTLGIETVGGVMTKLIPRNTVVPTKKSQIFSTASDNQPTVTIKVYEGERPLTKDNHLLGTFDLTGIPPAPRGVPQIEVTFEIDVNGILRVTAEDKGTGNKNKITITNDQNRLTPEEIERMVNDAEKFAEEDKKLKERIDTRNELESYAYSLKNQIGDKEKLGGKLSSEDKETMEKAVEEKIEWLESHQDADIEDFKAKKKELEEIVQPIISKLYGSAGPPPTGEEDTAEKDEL

What was measured:
[1] = target: T1, Polypeptide N-acetylgalactosaminyltransferase 6 (GALNT6) (human) (UniProt Q8NCL4); experiment: co-IP; A549 stable cells (GRP78-OE with NC or G6-OE) lysed; extracts reacted with anti-GALNT6 or anti-GRP78 at 4 °C for 1 h, precipitated on Protein A columns (Capturem IP & Co-IP Kit), Western blot with anti-GALNT6 and anti-GRP78
T1 sequence: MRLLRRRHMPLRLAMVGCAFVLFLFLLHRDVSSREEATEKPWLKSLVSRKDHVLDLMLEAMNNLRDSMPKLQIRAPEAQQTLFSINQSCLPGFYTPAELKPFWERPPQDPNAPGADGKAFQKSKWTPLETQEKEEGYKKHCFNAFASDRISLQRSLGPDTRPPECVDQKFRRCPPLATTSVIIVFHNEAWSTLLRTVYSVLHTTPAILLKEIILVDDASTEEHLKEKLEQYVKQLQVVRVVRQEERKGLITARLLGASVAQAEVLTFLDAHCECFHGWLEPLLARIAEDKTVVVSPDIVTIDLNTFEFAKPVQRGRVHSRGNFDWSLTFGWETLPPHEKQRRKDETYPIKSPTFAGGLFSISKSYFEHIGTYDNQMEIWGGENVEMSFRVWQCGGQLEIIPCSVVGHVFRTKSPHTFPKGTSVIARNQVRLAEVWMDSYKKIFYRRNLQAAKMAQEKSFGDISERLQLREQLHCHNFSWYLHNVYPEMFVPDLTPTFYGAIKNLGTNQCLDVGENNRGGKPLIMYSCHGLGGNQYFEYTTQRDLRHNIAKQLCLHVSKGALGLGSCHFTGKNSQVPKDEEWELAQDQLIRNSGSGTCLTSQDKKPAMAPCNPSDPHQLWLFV

[2] = target: Glucose-regulated protein 78 (GRP78) (human) (UniProt P11021); experiment: as above

binding [1]: binds
Molecule: Glucose-regulated protein 78 (GRP78) (from UniProt P11021 19-654)

binding [2]: binds
B1: Polypeptide N-acetylgalactosaminyltransferase 6 (GALNT6) (enzyme, UniProt Q8NCL4 1-622)
chain: T1 sequence
